We go through one compound from patent US20130210860A1, “PROPHYLACTIC AND/OR THERAPEUTIC AGENT AGAINST LYMPHEDEMA” (KOWA CO., LTD., priority 2010, published 2013).

The experiment has as its system mouse model of abdominal wall lymphedema. Briefly: Mouse model of abdominal wall lymphedema, thickness of the skin section (wild-type mouse). The conditions noted are these: C57BL/6J mice; combined results of Experiments 2 and 3; pitavastatin 1 mg/kg/day, atorvastatin 2.5 or 1 mg/kg/day, pravastatin 1 mg/kg/day oral; after seven days; FIG. 2. The class given is in vivo, C57BL/6J mouse. The protocol: A male C57BL/6J mouse and a male eNOS-deficient mouse having a genetic background of C57BL/6J, both of which are eight weeks old at the time of surgery, each receives an intraperitoneal injection of Nembutal at 60 mg/kg, and further receives a subcutaneous injection of 1% Evans blue for identification of lymph nodes and lymphatic vessels in the dorsum of the right foot, the back of the hand, and the buttocks in an amount of 0.05 mL at each site. The abdominal hair was removed and the abdominal skin is incised in an open-door fashion so as to identify the inguinal lymph nodes, axillary lymph nodes, and lymphatic vessels connecting these lymph nodes in the right abdominal wall. The lymphatic vessels are ligated at two to three sites near the axillary lymph nodes, followed by excision of the axillary lymph nodes. Subsequently, the skin is sutured, whereby the surgery is completed. On the seventh day after the surgery, the abdominal skin is once again incised in an open-door fashion to collect the abdominal wall tissues. The mice were orally administered with the statins dissolved in distilled water (250 μl) from three days before to seven days after the surgery once a day. […] Methanol-fixed paraffin-embedded tissue sections were stained with hematoxylin, and the thickness of the skin section prepared from the upper inguinal area, which is the lowermost part of a mouse, was measured. […]

For `CC(C)c1c(C(=O)Nc2ccccc2)c(-c2ccccc2)c(-c2ccc(F)cc2)n1CC[C@@H](O)C[C@@H](O)CC(=O)O` [atorvastatin, (3R,5R)-7-[2-(4-fluorophenyl)-5-isopropyl-3-phenyl-4-phenylcarbamoyl-1H-pyrrol-1-yl]-3,5-dihydroxyheptanoic acid], the “lymphedema (thickness of the skin)” value is “markedly inhibit”.
